Results from one PubChem assay

The results are deposited in PubChem (AID1159506; NCATS, 2015).

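Genome-wide siRNA knockdown in TC32 Ewing sarcoma cells, comparing luciferase light from an NR0B1-promoter reporter with a CMV-promoter reporter 48 hours after transfection. Each siRNA was applied at 20 nM. A z-score of the log NR0B1-over-CMV signal, less the median of siRNAs with the same seed; more negative means a stronger specific loss of the NR0B1 reporter.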

The strongest results of the screen are mostly left out here. Sequences are the guide (antisense) strand, without overhang.

| Sequence | target gene | seed-corrected z-score |
|---|---|---|
| `UUCUUGAUGAGAUUCUUCC` | NSMCE4A | -0.4222 |
| `UGUUUAUCACCAAGUACUC` | MCMDC2 | -0.1662 |
| `AAGGUGAGCAGGAAACAGC` | LOC728283 | 0.3987 |
| `UCAUAAUAUUCUUAACUCC` | VAMP8 | 0.1272 |
| `UCGCUUUAGAGCUUCAGCC` | DDX23 | -0.4593 |
| `UUUGAUGUAGCAAUUUUGU` | ECHDC1 | 0.2352 |
| `UUCACUUUUAUGCUUGUAC` | C2orf49 | -0.04783 |
| `UUAACUUGAAAUAUAAGAC` | USMG5 | 0.2733 |
| `UAAGGUACUGGUUGUCAGG` | IFIT2 | 0.03251 |
| `AAUCUUAUGCUCAAUAAUC` | ZNF277 | 0.9471 |
| `AUCAUUUCCACGGGCACCG` | SERPINF2 | 0.5654 |
| `UGCUCUGUAAAUGAGACUC` | C7orf25 | -1.196 |
| `AGGGUCUUGAGCUUUGUUC` | C11orf72 | -0.9565 |
| `UCUGUUGGAAGGGUAAAUC` | EYA1 | 0.4841 |
| `UCUCGUACUGGGUACUUGC` | NFASC | 0.1187 |
| `UUCCCAGAAAGAUCAUACG` | AGMAT | 0.3737 |
| `UCUCCCACAACUUUAGGUC` | SMARCE1 | -0.3214 |
| `UCUUGGUCCGCUUAAAGCC` | FAM114A1 | -0.01848 |
| `AUUCUUCUAAACGCGAUCC` | BPIFB3 | 0.6721 |
| `UGUCGUUCCUGGUGAAUCG` | ZBTB7B | 0.04192 |
| `UCAUGCAUCUGUCCUAAGG` | IDO2 | -0.1231 |
| `UAGGAGGUGAGCACGCUCA` | SLC38A7 | -0.2125 |
| `UUCUGGUGAAUAGCUCAGG` | SURF2 | 0.3753 |
| `UACCCAUGAACUAAGUGCC` | CLHC1 | 0.2989 |
| `AUAAGAACUGCCUUAAGGC` | CYTH3 | 0.4404 |
| `UACUGGGCUCAGUUCAUCU` | LDLRAD1 | -0.7441 |
| `AUCUGGAUCACUCAAAAGC` | HSF2BP | 0.1224 |
| `UGUCGAUGUAUAAAAAGGG` | TMEM176B | 0.04884 |
| `AAGCUCAUAACUGCGGUUC` | IDO2 | 0.2213 |
| `UCGUUCUUGACAUUGAUGC` | MYL10 | 0.4293 |
| `UACUGAUAAAAUCACUCUC` | LRRC37A | 0.5328 |
| `AAACUUGUGAUAGGUCUGC` | GLUD1 | 0.5633 |
| `UAUCGAGAGAGGGUGUUGG` | PLIN1 | 0.04915 |
| `AUAGAGGACGGAGUUAAGG` | ARHGEF19 | -0.4354 |
| `UGCUUUACCCUCUUUCUUG` | LIG1 | 0.1112 |
| `UGUUAACCCGCUUAUAACC` | LTBP1 | 0.3835 |
| `UCCUUUCUCACUAGGAUGC` | GZMH | 0.1393 |
| `UUUUACUUAAGAAUUCCAG` | ANP32C | 0.1151 |
| `UCUCGUAACAAUCCGGAUG` | ADGRE4P | -0.3978 |
| `AUCUUUUUCACCGGGAGUA` | FAM120AOS | -1.523 |
| `UAUAUGAACUUGUAGAAGG` | FAM71F2 | 0.3216 |
| `UCAUUGGUUGCUCAUAAGG` | ZFAT | -0.2249 |
| `UAAGCUUAGAAAUCUAUCU` | IKBIP | 1.122 |
| `UUCAUAAAAGGCUGGAUCA` | CMC1 | -0.8452 |
| `UUGGAUUCUUAGUUUAACC` | DBF4 | 1.638 |
| `UUGACUUUGACGAACACUG` | FN3K | -0.4601 |
| `UAAAGAUUAGAAUCUGGUC` | CTAGE5 | 0.6716 |
| `UUACUGAUUCCCAAUUCGC` | POLR3F | -0.03783 |
| `UUCAUGUCCAGAUAGGUGC` | VPS18 | -1.237 |
| `UCACAAAUUUCUUCCUUGC` | ERCC1 | 0.7171 |
| `UUGCAGAUGAAUAGCAGGC` | OR5J2 | 1.019 |
| `UAAGGUUAUGAUAGGCUCC` | ZNF484 | 1.164 |
| `UUUGGUAGGCUCAUAGUCC` | RALA | 0.1647 |
| `UGAGUAGACUGAGAGGAGG` | CLTB | -0.4867 |
| `UAUCUGUCCGAAUAGAUAC` | RAD1 | -0.01632 |
| `UCCCGUUUCUAGAUGCUCC` | TMEM91 | 0.6443 |
| `UUAGAGCUUAGAACUCAGC` | AKT1S1 | 0.1644 |
| `AACGGAACACGGAACUGUC` | GPR25 | -1.194 |
| `UUCUCAGCUACGACAGUGC` | CORO1A | -0.06182 |
| `UGUGCUCUGAUGUUGACCG` | SPATA2L | -0.616 |
| `UUAGUGGAGCGGACCUUCU` | MRPL53 | 0.13 |
| `UAUCAUUCUGGUCGGCUUC` | ITPK1 | 0.6101 |
| `CAACGAACAACUCUCUUGC` | FAM201B | 0.9109 |
| `UGUGGUAUGAAUGAAGCGA` | C12orf76 | -1.45 |
| `UCUCAUAAAAAUUCCGAGC` | UPF2 | 0.0295 |
| `UGACCUUUCAUCCUCUAGC` | C1orf226 | 0.5574 |
| `UCUAUUUCCGUCUCCGUCC` | C17orf49 | -0.4755 |
| `UCCCUGUCCACAACAAGGA` | SPINK4 | 0.3289 |